Results as given in patent US20250223332A1 (BOARD OF TRUSTEES OF THE UNIVERSITY OF ILLINOIS, published 2025).
No constants are given. Whether binding was seen depends on the method and setting. Some results given as binding are weak or reduced against the parent protein; the word gives no strength.

Sequences of proteins named here, by UniProt entry; tags and fusion partners are left off. Residues count along the entry.
UniProt Q9NR61, residues 27-524: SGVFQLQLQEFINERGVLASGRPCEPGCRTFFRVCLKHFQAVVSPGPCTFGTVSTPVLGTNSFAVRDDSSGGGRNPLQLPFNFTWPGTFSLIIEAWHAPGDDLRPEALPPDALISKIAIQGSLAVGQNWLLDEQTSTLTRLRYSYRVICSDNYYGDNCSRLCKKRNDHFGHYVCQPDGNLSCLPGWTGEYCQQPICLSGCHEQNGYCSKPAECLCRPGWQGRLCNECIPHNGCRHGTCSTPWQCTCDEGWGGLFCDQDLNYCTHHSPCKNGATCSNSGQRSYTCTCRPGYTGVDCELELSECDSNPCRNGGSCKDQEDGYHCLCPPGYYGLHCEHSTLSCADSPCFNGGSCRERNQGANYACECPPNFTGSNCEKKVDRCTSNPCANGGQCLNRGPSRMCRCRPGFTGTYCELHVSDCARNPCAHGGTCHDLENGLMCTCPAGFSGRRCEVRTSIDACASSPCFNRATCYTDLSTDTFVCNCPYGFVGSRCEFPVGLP

Target: T1, hDLL4-Fc (Sino Biologics) (human, UniProt Q9NR61 27-524, limits assumed)
T1 construct: Bought from Sino Biologics; also called Recombinant Fc-tagged hDLL4; recombinant hDLL4; not shown: Fc tag of the bought protein
Test: SPR (Biacore T200), hDLL4-Fc on the chip, decoy as analyte

B1: N410-14Fc (human Notch4 EGF-like repeats 10-14 fused to human IgG Fc) (Fc fusion)
chain: LEDMCLSQPCHGDAQCSTNPLTGSTLCLCQPGYSGPTCHQDLDECLMAQQGPSPCEHGGSCLNTPGSFNCLCPPGYTGSRCEADHNECLSQPCHPGSTCLDLLATFHCLCPPGLEGQLCEVETNECASAPCLNHADCHDLLNGFQCICLPGFSGTRCEEDIDECRSSPCANGGQCQDQPGAFHCKCLPGFEGPRCQ
notes: Produced in HEK293 cells; also called Notch4 peptibody; Notch4 decoy; not shown: human IgG Fc
binding: binds
